Measured values reported in patent publication US20210261642A1, “SOLUBILITY OF GLP-1 PEPTIDE” (Novo Nordisk A/S, priority 2017, published 2021).
This continues a long series; more values of the same kind are listed elsewhere.

Assay: Assay (I): Determination of Solubility (96-well plate, pH 3.0-11.0, organic solvent 0-70% w/w, UV absorption at 280 nm)
Format: physicochemical
Protocol: Assay (I): Determination of Solubility
96-Well Plate Preparation
96-well plates containing target peptide in a solid form were prepared in one of two ways:
Method 1 (evaporation): Addition of 100 μl stock solution of said peptide at a concentration of 4-6 mg/ml to each well of a 96-well half area plate (150 μl well size). Subsequently the solvent was evaporated by applying a vacuum until the solvent was completely removed.
Method 2 (precipitation): Addition of a certain volume of a stock solution of said peptide containing to each well of a 96-well half area plate followed by the addition of a certain volume of concentrated phosphoric acid to obtain a pH of 4.6 followed by addition of a certain volume of ethanol resulting in a final ethanol concentration of 20% v/v. Subsequently the plate was stored at 4° C. for 1 h and then centrifuged at 4,000 rpm for 20 min. Finally the supernatant was removed. The concentration of the stock solution was chosen in a way that the final amount of peptide after supernatant removal was >0.4 mg per well.
In both cases the stock solution was prepared by adding de-ionized water to a certain amount of powder of said peptide followed by a stepwise addition of small amounts of a concentrated sodium hydroxide solution until said peptide was completely in solution.
To determine solubility of a target peptide at different pH and organic solvent concentrations, two different buffer systems were used in independent experiments to cover the whole range from pH 3.0 to pH 11.0. Buffer system 1 covers pH 3.0-7.5 and buffer system 2 covers pH 7.5-11.0. For each buffer system 96 different solvent compositions were premixed in the following way: • 1. A low pH buffer (adjusted to either pH 3.0 or pH 7.5) and a high pH buffer (adjusted to either pH 7.5 or pH 11.0) were mixed at 8 different ratios to obtain values between pH 3.0 and pH 7.5 or pH 7.5 and pH 11.0, respectively. The total volume after mixing was 300 μl. • 2. 12 different amounts of organic solvent were then added to these buffers to obtain organic solvent (e.g. ethanol) concentrations between 0 and 70% w/w. • 3. Water was then added to obtain a total weight of 1.0 g of solvent in each well.
After preparing the 96 different solvent systems, 100 μl of each system was transferred to the 96-well plate containing the solid form of the target peptide (prepared as described in the section “96-well plate preparation”). The plate was then stored at a given temperature (between 5° C. and 70° C.) for a given time on a rotating shaker set to 400 rpm. At regular time intervals the plate was centrifuged (4,000 rpm for 10 min) and a 10 μl sample was taken from each well. The samples were then analysed by UV absorption at 280 nm for peptide quantification. Peptide concentration results are given as UV absorption at 280 nm of the sample subtracted UV absorption at 280 nm of a well comprising 10 μl water.
The buffers used were as follows: • Buffer system 1 (for the pH range from pH 3.0-7.5)
• Buffer system 2 (for the pH ranae from pH 7.5-11.0)
Solubility of liraglutide was determined using Assay (I) described herein. Liraglutide was prepared using Method 1 (evaporation) or Method 2 (precipitation) as described in subsection “96-well plate preparation”.

[1] = MeCN 63.6% w/w, pH 3.0, RT, Method 1
[2] = MeCN 63.6% w/w, pH 3.6, 5° C., Method 1
[3] = MeCN 63.6% w/w, pH 3.6, RT, Method 1
[4] = MeCN 63.6% w/w, pH 4.3, 5° C., Method 1
[5] = MeCN 63.6% w/w, pH 4.3, 70° C., Method 1
[6] = MeCN 63.6% w/w, pH 4.3, RT, Method 1
[7] = MeCN 63.6% w/w, pH 4.9, 5° C., Method 1
[8] = MeCN 63.6% w/w, pH 4.9, 70° C., Method 1
[9] = MeCN 63.6% w/w, pH 4.9, RT, Method 1
[10] = MeCN 63.6% w/w, pH 5.6, 5° C., Method 1
[11] = MeCN 63.6% w/w, pH 5.6, 70° C., Method 1
[12] = MeCN 63.6% w/w, pH 5.6, RT, Method 1
[13] = MeCN 63.6% w/w, pH 6.2, 5° C., Method 1
[14] = MeCN 63.6% w/w, pH 6.2, 70° C., Method 1
[15] = MeCN 63.6% w/w, pH 6.2, RT, Method 1
[16] = MeCN 63.6% w/w, pH 6.9, 5° C., Method 1
[17] = MeCN 63.6% w/w, pH 6.9, 70° C., Method 1
[18] = MeCN 63.6% w/w, pH 6.9, RT, Method 1
[19] = MeCN 63.6% w/w, pH 7.5, 5° C., Method 1
[20] = MeCN 63.6% w/w, pH 7.5, 70° C., Method 1
[21] = MeCN 63.6% w/w, pH 7.5, RT, Method 1
[22] = MeCN 63.6% w/w, pH 8.0, 70° C., Method 1 (evaporation)
[23] = MeCN 63.6% w/w, pH 8.0, RT, Method 1
[24] = MeCN 63.6% w/w, pH 8.5, 70° C., Method 1 (evaporation)
[25] = MeCN 63.6% w/w, pH 8.5, RT, Method 1
[26] = MeCN 63.6% w/w, pH 9.0, 70° C., Method 1 (evaporation)
[27] = MeCN 63.6% w/w, pH 9.0, RT, Method 1
[28] = MeCN 63.6% w/w, pH 9.5, 70° C., Method 1 (evaporation)
[29] = MeCN 63.6% w/w, pH 9.5, RT, Method 1
[30] = MeCN 63.6% w/w, pH 10.0, 70° C., Method 1 (evaporation)
[31] = MeCN 63.6% w/w, pH 10.0, RT, Method 1
[32] = MeCN 63.6% w/w, pH 10.5, 70° C., Method 1 (evaporation)
[33] = MeCN 63.6% w/w, pH 10.5, RT, Method 1
[34] = MeCN 63.6% w/w, pH 11.0, 70° C., Method 1 (evaporation)
[35] = MeCN 63.6% w/w, pH 11.0, RT, Method 1
[36] = MeCN 70.0% w/w, pH 3.0, 5° C., Method 1
[37] = MeCN 70.0% w/w, pH 3.0, 70° C., Method 1
[38] = MeCN 70.0% w/w, pH 3.0, RT, Method 1

CCCCCCCCCCCCCCCC(=O)N[C@@H](CCC(=O)NCCCC[C@H](NC(=O)[C@H](C)NC(=O)[C@H](C)NC(=O)[C@H](CCC(N)=O)NC(=O)CNC(=O)[C@H](CCC(=O)O)NC(=O)[C@H](CC(C)C)NC(=O)[C@H](Cc1ccc(O)cc1)NC(=O)[C@H](CO)NC(=O)[C@H](CO)NC(=O)[C@@H](NC(=O)[C@H](CC(=O)O)NC(=O)[C@H](CO)NC(=O)[C@@H](NC(=O)[C@H](Cc1ccccc1)NC(=O)[C@@H](NC(=O)CNC(=O)[C@H](CCC(=O)O)NC(=O)[C@H](C)NC(=O)[C@@H](N)Cc1cnc[nH]1)[C@@H](C)O)[C@@H](C)O)C(C)C)C(=O)N[C@@H](CCC(=O)O)C(=O)N[C@@H](Cc1ccccc1)C(=O)N[C@H](C(=O)N[C@@H](C)C(=O)N[C@@H](Cc1c[nH]c2ccccc12)C(=O)N[C@@H](CC(C)C)C(=O)N[C@H](C(=O)N[C@@H](CCCNC(=N)N)C(=O)NCC(=O)N[C@@H](CCCNC(=N)N)C(=O)NCC(=O)O)C(C)C)[C@@H](C)CC)C(=O)O [liraglutide, Arg34,Lys26-(N-epsilon-(gamma-L-glutamyl(N-alfa-hexadecanoyl)))-GLP-1(7-37)]
1.2 mg/mL: Peptide concentration after 180 min [23]
0.3 mg/mL: Peptide concentration after 180 min [3] | Peptide concentration after 180 min [6] | Peptide concentration after 24 h [9] | Peptide concentration after 5 min [10] | Peptide concentration after 5 min [12] | Peptide concentration after 5 min [15] | Peptide concentration after 5 min [23] | Peptide concentration after 5 min [25] | Peptide concentration after 5 min [27] | Peptide concentration after 5 min [29]
1.5 mg/mL: Peptide concentration after 180 min [27]
1.4 mg/mL: Peptide concentration after 5 min [26]
2.4 mg/mL: Peptide concentration after 180 min [17] | Peptide concentration after 5 min [34]
1.7 mg/mL: Peptide concentration after 180 min [8] | Peptide concentration after 180 min [11]
3.3 mg/mL: Peptide concentration after 24 h [23]
1.1 mg/mL: Peptide concentration after 24 h [1]
2.2 mg/mL: Peptide concentration after 180 min [14] | Peptide concentration after 5 min [24]
0.5 mg/mL: Peptide concentration after 5 min [5] | Peptide concentration after 24 h [7] | Peptide concentration after 5 min [8] | Peptide concentration after 24 h [12] | Peptide concentration after 5 min [14] | Peptide concentration after 5 min [17] | Peptide concentration after 24 h [18] | Peptide concentration after 180 min [19] | Peptide concentration after 5 min [21] | Peptide concentration after 180 min [36] | Peptide concentration after 180 min [38]
2.0 mg/mL: Peptide concentration after 5 min [22]
>4.0 mg/mL: Peptide concentration after 180 min [20] | Peptide concentration after 180 min [22] | Peptide concentration after 180 min [24] | Peptide concentration after 180 min [26] | Peptide concentration after 24 h [27] | Peptide concentration after 180 min [28] | Peptide concentration after 24 h [29] | Peptide concentration after 180 min [30] | Peptide concentration after 180 min [32] | Peptide concentration after 180 min [34]
1.6 mg/mL: Peptide concentration after 24 h [19] | Peptide concentration after 180 min [21] | Peptide concentration after 180 min [29] | Peptide concentration after 24 h [31] | Peptide concentration after 180 min [35]
1.3 mg/mL: Peptide concentration after 180 min [25]
2.9 mg/mL: Peptide concentration after 24 h [25] | Peptide concentration after 5 min [28] | Peptide concentration after 180 min [37]
0.2 mg/mL: Peptide concentration after 5 min [2] | Peptide concentration after 5 min [3] | Peptide concentration after 5 min [4] | Peptide concentration after 5 min [6] | Peptide concentration after 5 min [7] | Peptide concentration after 5 min [9] | Peptide concentration after 5 min [13] | Peptide concentration after 5 min [16] | Peptide concentration after 5 min [18]
0.9 mg/mL: Peptide concentration after 5 min [32] | Peptide concentration after 24 h [35]
0.4 mg/mL: Peptide concentration after 180 min [2] | Peptide concentration after 24 h [3] | Peptide concentration after 180 min [4] | Peptide concentration after 24 h [6] | Peptide concentration after 180 min [7] | Peptide concentration after 180 min [9] | Peptide concentration after 180 min [10] | Peptide concentration after 180 min [12] | Peptide concentration after 180 min [13] | Peptide concentration after 180 min [15] | Peptide concentration after 24 h [15] | Peptide concentration after 180 min [16] | Peptide concentration after 180 min [18] | Peptide concentration after 5 min [19] | Peptide concentration after 5 min [31] | Peptide concentration after 5 min [33] | Peptide concentration after 5 min [35] | Peptide concentration after 5 min [36] | Peptide concentration after 5 min [38]
1.8 mg/mL: Peptide concentration after 180 min [5] | Peptide concentration after 24 h [33]
0.6 mg/mL: Peptide concentration after 5 min (MeCN 63.6% w/w, pH 3.6, 70° C., Method 1) | Peptide concentration after 24 h [4] | Peptide concentration after 24 h [10] | Peptide concentration after 24 h [13] | Peptide concentration after 24 h [16] | Peptide concentration after 180 min [31] | Peptide concentration after 180 min [33] | Peptide concentration after 5 min [37]
3.1 mg/mL: Peptide concentration after 24 h [21]
1.0 mg/mL: Peptide concentration after 5 min [30] | Peptide concentration after 24 h [36]
0.7 mg/mL: Peptide concentration after 24 h [2] | Peptide concentration after 5 min [11]
0.8 mg/mL: Peptide concentration after 180 min [1]
1.9 mg/mL: Peptide concentration after 5 min [20]
